{"sequences": {"note": "The chains behind the UniProt entries cited, without tags or fusion partners.", "UniProt P17839": "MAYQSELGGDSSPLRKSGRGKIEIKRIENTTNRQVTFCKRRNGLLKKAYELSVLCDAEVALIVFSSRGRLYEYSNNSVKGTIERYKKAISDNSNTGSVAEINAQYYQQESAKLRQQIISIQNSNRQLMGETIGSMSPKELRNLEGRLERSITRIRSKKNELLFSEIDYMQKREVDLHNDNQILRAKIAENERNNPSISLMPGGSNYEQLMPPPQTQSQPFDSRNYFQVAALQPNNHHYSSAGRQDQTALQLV"}, "source": "paper PMC6289996", "molecular_target": "T1, CRABS CLAW (CRC) (Arabidopsis thaliana (Col)) (UniProt Q8L925)", "T1 sequence": "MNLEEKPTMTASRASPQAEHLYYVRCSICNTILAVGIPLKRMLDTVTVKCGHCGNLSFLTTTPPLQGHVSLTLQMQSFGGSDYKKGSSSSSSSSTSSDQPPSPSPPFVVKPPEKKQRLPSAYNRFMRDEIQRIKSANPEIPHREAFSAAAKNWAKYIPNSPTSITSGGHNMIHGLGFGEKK", "assay": "two-hybrid; bait and prey constructs in pDEST vectors co-transformed into MaV203 yeast; double transformants selected on -Trp-Leu SD media; survival test on -Trp-Leu-His SD media", "note": "These are yes or no findings as the source states them, for the method shown.", "data": [{"substance": "AGAMOUS (AG) (from UniProt P17839 1-252)", "values": [{"measurement": "binding", "result": "no binding"}]}]}
